According to article PMC4674064, “Newly Characterized Region of CP190 Associates with Microtubules and Mediates Proper Spindle Morphology in Drosophila Stem Cells” (PLoS ONE, 2015):

Target: taxol-stabilized microtubules
Assay: co-sedimentation; taxol-stabilized MTs and purified protein incubated at room temperature 20 min, layered on a 40% glycerol cushion, 50,000xg 30 min; supernatant and pellet by SDS-PAGE (Coomassie); both purified

Row | binding | Binder
1 | binds weakly | GST-F1-L (CP190 linker artificially dimerized as a GST fusion) (domain or fragment, UniProt Q24478 136-209) PSPKGIRRRTVGQPSSGLPQQRVLGPSPQSRNVATPIAQRANTQRGSTGNTMSRTSGGSNRSPYGDSSNVKQEP
2 | no binding | CP190 linker region F1-L (aa 136-209) (domain or fragment, UniProt Q24478 136-209) PSPKGIRRRTVGQPSSGLPQQRVLGPSPQSRNVATPIAQRANTQRGSTGNTMSRTSGGSNRSPYGDSSNVKQEP

Further lines, the binder ahead of its results:

Row | Binder | binding
3 | CP190 fragment F1 (aa 1-209; BTB domain plus linker) (domain or fragment, UniProt Q24478 1-209) MGEVKSVKVDNWGVFFLQKLQNFFNKTDYCDLTLQFRDNSQLKVHRLVLSACTDYFNVLEQTCEIVDDALIMPNEFQADVVVPIVNFMYTGTLEFELKMYGKLLRTAKEMNMTVLLKLLEAHRRTMENVNRQQRPPSPKGIRRRTVGQPSSGLPQQRVLGPSPQSRNVATPIAQRANTQRGSTGNTMSRTSGGSNRSPYGDSSNVKQEP | binds
4 | Drosophila melanogaster CP190 BTB domain (residues 1-135) (domain or fragment, UniProt Q24478 1-135, looked up, CP190 (centrosome associated protein at 190 kDa), Drosophila melanogaster, BTB domain, residues 1-135; the final crystal model holds residues 2-121; Native and selenomethionine-substituted protein were crystallised; also called BTB-WT; source: E. coli BL21 DE3 (pLysS), purified (Ni-NTA, thrombin digestion, Q-sepharose ion exchange); not shown: His6, N-terminal, cleaved) MGEVKSVKVDNWGVFFLQKLQNFFNKTDYCDLTLQFRDNSQLKVHRLVLSACTDYFNVLEQTCEIVDDALIMPNEFQADVVVPIVNFMYTGTLEFELKMYGKLLRTAKEMNMTVLLKLLEAHRRTMENVNRQQRP | no binding

These are yes or no findings as the source states them, for the method shown. Binding calls can cover weak binding; strength is not graded here. Sequences can lack the tags named with a protein.
